The list shows a part of the results.
Key:
Assay in all cases: log2 fold change, soluble protein after heating vs DMSO (PISA); higher = thermal stabilisation; K562 cells, 10 uM, 30 min; active = over 0.2 and 3.5 SD of the protein, either way, in both replicates (recomputed)
[1] = compound: CS(=O)(=O)c1ccc(-c2cnc(N)c(C(=O)Nc3ccccc3)n2)cc1
How it was run: (§1)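 Quantification of soluble protein used TMTpro 16plex LC-MS/MS, with channel sums equalised. Samples were the supernatant after 21,000xg for 90 min of pooled aliquots from K562 cells (2×10^6 cells/mL) treated with 10 μM compound for 30 min, heated for 3 min over 48°C-58°C, and extracted in PBS with 0.5% NP-40 at 4°C. Values, from duplicates, describe thermal stability against control samples on a log2 fold-change scale.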

By UniProt entry, the sequences of proteins in these tests, tags left out. Where a name states a change or a piece, a line headed by the entry shows the natural chain unless it says otherwise.
UniProt O15392, whole entry, looked up: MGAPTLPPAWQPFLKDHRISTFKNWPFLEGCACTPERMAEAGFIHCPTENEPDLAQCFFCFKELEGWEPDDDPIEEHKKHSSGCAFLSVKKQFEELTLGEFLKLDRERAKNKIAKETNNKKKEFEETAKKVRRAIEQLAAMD
UniProt Q9UL45: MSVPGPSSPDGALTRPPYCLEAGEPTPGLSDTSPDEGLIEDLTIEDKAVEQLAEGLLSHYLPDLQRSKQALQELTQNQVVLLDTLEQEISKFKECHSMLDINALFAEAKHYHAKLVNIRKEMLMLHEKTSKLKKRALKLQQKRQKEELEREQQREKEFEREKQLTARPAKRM
UniProt Q8WY22: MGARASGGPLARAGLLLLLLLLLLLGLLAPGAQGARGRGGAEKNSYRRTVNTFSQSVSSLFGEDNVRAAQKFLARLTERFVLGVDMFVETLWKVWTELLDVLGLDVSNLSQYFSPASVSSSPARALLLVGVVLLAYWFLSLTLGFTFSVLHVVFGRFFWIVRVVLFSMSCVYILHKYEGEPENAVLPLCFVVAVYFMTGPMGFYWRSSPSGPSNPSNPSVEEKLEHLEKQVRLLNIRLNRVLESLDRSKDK
UniProt Q9NWV8, whole entry, looked up: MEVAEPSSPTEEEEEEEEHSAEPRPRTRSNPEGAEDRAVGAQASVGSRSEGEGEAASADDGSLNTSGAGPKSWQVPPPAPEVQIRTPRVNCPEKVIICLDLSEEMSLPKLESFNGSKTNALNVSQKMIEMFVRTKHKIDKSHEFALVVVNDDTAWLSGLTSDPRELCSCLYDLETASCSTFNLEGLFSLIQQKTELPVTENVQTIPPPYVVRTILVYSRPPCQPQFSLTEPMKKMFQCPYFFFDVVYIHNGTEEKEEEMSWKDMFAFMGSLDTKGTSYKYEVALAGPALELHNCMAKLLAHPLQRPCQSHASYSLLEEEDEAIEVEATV
UniProt Q13867: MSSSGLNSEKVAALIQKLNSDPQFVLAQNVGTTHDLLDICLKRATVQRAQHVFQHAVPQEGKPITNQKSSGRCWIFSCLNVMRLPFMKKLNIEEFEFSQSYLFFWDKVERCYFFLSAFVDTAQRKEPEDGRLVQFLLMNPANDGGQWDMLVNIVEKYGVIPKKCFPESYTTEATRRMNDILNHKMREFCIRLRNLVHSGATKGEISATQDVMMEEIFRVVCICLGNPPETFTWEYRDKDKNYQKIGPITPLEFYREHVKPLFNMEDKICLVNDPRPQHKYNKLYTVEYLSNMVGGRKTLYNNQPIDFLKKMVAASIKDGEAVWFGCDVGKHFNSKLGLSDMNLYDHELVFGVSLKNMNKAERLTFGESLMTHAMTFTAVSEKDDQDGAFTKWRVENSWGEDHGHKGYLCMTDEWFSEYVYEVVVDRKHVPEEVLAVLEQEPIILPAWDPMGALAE
UniProt Q9NW68: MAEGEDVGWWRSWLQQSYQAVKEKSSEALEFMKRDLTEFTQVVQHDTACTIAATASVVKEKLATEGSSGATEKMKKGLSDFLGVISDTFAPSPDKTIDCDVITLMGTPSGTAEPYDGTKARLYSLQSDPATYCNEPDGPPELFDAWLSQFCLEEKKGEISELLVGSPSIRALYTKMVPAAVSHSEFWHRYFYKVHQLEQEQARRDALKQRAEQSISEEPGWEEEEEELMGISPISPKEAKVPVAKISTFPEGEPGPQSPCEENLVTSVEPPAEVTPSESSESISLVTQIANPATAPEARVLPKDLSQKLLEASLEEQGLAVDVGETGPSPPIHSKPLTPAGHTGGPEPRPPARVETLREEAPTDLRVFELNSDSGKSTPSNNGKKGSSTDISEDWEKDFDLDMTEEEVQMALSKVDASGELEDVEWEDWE
UniProt Q14457, whole entry, looked up: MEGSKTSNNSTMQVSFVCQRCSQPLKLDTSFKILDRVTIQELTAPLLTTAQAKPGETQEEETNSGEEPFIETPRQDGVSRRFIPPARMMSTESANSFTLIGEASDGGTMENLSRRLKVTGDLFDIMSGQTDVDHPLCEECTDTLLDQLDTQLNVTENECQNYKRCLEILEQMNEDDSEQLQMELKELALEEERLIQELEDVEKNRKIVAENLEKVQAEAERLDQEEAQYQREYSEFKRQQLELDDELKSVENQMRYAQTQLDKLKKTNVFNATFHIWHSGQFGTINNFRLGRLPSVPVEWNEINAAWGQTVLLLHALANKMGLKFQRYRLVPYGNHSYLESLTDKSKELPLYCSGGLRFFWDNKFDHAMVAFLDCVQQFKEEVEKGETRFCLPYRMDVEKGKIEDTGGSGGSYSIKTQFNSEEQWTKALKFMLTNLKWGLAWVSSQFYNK
UniProt Q14692: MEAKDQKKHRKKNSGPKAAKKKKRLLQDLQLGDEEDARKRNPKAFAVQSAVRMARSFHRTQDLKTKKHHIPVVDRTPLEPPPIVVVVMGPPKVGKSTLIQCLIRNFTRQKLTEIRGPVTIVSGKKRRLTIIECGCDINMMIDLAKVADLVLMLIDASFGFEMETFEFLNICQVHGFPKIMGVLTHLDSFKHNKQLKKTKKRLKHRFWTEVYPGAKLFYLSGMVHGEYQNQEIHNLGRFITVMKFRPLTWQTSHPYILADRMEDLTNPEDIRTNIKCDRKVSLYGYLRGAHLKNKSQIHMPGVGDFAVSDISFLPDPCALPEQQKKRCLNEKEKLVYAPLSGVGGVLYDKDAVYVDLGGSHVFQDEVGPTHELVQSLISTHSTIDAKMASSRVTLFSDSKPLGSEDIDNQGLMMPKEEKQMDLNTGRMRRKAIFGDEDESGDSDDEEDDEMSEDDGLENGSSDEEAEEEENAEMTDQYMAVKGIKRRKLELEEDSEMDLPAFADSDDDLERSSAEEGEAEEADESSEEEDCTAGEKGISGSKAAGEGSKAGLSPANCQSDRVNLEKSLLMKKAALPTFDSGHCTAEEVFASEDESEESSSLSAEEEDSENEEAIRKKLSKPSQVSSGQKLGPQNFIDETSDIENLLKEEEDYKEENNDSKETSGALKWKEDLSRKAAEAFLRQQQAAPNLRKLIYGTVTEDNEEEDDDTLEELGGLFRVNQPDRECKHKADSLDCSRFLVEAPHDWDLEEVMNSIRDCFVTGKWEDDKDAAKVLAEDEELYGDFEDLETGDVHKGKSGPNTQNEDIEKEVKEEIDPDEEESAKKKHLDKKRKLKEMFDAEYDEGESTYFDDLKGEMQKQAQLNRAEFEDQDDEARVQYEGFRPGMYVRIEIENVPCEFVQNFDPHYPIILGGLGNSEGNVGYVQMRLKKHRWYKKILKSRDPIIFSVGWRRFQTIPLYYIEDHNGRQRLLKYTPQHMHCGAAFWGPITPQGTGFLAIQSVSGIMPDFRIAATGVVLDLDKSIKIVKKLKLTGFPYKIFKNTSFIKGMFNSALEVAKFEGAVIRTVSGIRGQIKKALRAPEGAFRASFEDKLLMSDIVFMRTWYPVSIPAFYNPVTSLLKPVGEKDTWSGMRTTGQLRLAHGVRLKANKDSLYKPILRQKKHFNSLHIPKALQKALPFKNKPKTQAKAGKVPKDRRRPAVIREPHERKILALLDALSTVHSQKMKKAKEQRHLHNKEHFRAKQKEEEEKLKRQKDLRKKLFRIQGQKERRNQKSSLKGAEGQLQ
UniProt P15291: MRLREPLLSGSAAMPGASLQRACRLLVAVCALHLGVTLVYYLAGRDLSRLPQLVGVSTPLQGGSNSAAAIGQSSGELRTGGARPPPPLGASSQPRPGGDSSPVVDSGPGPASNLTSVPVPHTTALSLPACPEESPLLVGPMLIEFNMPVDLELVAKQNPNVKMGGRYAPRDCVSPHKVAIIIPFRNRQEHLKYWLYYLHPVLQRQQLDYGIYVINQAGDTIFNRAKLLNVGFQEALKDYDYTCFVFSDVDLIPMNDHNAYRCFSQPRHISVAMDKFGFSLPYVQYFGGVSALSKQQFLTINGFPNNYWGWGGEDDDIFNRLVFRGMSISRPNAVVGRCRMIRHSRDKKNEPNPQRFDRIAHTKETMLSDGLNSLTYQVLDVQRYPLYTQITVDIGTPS
UniProt Q9NYF8, whole entry, looked up: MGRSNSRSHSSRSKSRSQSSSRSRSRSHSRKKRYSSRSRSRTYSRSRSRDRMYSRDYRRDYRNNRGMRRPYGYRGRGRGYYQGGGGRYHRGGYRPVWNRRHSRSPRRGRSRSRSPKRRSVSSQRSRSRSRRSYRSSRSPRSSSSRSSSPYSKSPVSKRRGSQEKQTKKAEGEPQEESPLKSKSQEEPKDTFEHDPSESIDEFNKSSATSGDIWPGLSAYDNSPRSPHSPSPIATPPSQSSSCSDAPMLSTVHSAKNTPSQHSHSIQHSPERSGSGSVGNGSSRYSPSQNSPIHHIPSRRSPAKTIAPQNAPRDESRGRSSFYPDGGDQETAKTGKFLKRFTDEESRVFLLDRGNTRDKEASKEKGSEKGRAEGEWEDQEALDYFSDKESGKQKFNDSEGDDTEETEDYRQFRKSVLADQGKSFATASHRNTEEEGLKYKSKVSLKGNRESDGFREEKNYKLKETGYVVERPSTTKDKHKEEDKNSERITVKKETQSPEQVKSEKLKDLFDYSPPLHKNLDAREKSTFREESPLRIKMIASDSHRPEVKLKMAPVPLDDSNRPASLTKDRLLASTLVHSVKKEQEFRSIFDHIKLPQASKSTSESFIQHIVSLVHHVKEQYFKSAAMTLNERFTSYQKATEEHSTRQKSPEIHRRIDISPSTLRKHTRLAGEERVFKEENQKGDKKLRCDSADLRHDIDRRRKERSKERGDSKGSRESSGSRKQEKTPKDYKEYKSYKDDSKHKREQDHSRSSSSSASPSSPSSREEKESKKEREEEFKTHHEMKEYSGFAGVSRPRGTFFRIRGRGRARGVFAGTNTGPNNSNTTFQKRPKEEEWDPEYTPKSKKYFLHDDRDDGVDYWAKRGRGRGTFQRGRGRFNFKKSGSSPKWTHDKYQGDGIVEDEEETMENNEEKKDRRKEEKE
UniProt Q9UIG0: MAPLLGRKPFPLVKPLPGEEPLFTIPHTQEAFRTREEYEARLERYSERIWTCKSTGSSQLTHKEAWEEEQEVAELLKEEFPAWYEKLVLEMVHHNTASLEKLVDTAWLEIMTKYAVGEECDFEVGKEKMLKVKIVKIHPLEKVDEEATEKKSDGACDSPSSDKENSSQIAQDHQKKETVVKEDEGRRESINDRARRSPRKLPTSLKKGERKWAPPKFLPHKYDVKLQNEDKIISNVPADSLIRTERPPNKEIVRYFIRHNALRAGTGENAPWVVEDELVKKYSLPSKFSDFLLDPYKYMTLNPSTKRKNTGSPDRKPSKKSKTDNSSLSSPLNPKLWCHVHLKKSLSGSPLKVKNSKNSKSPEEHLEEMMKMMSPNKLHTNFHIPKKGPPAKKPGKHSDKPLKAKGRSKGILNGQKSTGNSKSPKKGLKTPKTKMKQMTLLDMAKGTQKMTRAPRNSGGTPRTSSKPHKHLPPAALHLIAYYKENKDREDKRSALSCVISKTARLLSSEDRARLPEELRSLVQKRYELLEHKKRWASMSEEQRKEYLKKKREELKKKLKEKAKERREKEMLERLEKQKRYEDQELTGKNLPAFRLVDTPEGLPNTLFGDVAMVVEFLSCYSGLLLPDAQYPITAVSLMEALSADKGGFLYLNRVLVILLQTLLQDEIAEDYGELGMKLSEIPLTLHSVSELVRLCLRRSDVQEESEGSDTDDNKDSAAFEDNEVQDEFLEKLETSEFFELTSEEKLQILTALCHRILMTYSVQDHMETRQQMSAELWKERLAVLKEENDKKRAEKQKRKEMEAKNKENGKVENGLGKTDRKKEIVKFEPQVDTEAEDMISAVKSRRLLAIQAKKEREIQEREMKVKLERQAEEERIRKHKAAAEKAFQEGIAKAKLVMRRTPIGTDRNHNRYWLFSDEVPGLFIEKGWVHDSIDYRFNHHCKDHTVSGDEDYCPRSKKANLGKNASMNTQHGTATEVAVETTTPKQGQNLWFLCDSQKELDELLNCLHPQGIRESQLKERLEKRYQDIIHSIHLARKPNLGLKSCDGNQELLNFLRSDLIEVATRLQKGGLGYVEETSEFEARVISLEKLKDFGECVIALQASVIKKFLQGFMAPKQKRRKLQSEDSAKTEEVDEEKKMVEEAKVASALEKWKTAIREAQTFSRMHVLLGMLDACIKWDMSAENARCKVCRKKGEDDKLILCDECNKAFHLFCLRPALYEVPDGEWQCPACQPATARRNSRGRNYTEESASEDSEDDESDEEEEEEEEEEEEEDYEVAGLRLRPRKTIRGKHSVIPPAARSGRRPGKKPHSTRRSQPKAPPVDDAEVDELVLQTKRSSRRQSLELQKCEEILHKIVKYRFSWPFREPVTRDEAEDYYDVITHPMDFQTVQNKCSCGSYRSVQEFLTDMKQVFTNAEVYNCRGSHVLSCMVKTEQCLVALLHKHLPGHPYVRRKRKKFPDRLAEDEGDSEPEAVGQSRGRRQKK
UniProt Q9BUT1: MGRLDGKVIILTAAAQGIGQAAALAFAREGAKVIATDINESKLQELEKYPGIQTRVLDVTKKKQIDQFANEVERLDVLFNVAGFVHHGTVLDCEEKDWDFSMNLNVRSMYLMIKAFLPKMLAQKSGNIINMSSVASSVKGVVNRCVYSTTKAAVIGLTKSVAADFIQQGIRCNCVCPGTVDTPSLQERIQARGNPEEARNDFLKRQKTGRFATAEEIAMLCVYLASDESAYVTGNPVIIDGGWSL

[2] = compound: C[C@@H](Oc1cc(-c2cnn(C3CCNCC3)c2)cnc1N)c1c(Cl)ccc(F)c1Cl [crizotinib]
How it was run: as §1

[3] = compound: C[C@@H]1COCCN1C2=NC(=NC(=C2)C3(CC3)S(=O)(=O)C)C4=C5C=CNC5=CC=C4
How it was run: as §1

[4] = compound: C[C@H](C1=CC=C(C=C1)C(=O)NC2=C3C=CNC3=NC=C2)N
How it was run: as §1

[5] = compound: Cc1cc(Nc2cc(CN3CCOCC3)c3nc(C)c(Cc4ccc(Cl)cc4F)n3n2)n[nH]1 [gandotinib]
How it was run: as §1

[6] = compound: Cc1cc(SCc2sc(-c3ccc(C(F)(F)F)cc3)nc2C)ccc1OCC(=O)O
How it was run: as §1

[7] = compound: Cc1ccc(-n2nc(C(C)(C)C)cc2NC(=O)Nc2ccc(OCCN3CCOCC3)c3ccccc23)cc1 [doramapimod]
How it was run: as §1

[8] = compound: Cc1ccc(C(=O)N(CCCN)[C@@H](c2nc3cc(Cl)ccc3c(=O)n2Cc2ccccc2)C(C)C)cc1 [ispinesib]
How it was run: as §1

[9] = compound: C[C@H](Nc1ncnc2nc[nH]c12)c1cc2cccc(Cl)c2c(=O)n1-c1ccccc1 [duvelisib]
How it was run: as §1

[10] = compound: Cc1cc(Nc2cc(N3CCN(C)CC3)nc(Sc3ccc(NC(=O)C4CC4)cc3)n2)n[nH]1 [tozasertib]
How it was run: as §1

Row | Target | log2 fold change [1] | log2 fold change [2] | log2 fold change [3] | log2 fold change [4] | log2 fold change [5] | log2 fold change [6] | log2 fold change [7] | log2 fold change [8] | log2 fold change [9] | log2 fold change [10]
1 | BOP1 (UniProt Q14137) | inactive: -0.008 | inactive: 0.11 | inactive: -0.153 | inactive: 0.064 | inactive: 0.025 | inactive: 0.134 | inactive: -0.008 | inactive: -0.114 | – | –
2 | BIRC5 (UniProt O15392) | inactive: 0.064 | inactive: 0.101 | inactive: -0.047 | inactive: -0.071 | – | inactive: -0.087 | inactive: 0.034 | inactive: -0.019 | inactive: 0.05 | inactive: -0.082
3 | BLOC1S6 (UniProt Q9UL45) | inactive: 0.016 | inactive: 0.032 | inactive: 0.061 | inactive: -0.048 | – | inactive: -0.051 | inactive: 0.035 | inactive: 0.022 | inactive: 0.02 | inactive: -0.002
4 | BRI3BP (UniProt Q8WY22) | inactive: 0.023 | inactive: -0.111 | inactive: -0.089 | inactive: 0.024 | – | inactive: 0.046 | inactive: 0.015 | inactive: -0.012 | inactive: 0.038 | inactive: -0.023
5 | BRK1 isoform 2 (UniProt Q8WUW1) | inactive: -0.004 | inactive: 0.029 | inactive: 0.11 | inactive: -0.276 | inactive: -0.024 | inactive: -0.035 | inactive: -0.041 | inactive: 0.18 | – | –
6 | BLOC1S4 (UniProt Q9NUP1) | inactive: -0.018 | inactive: 0.028 | inactive: 0.045 | inactive: -0.011 | inactive: -0.103 | inactive: -0.013 | inactive: 0.005 | inactive: -0.071 | inactive: 0.064 | inactive: -0.051
7 | BORCS5 (UniProt Q969J3) | inactive: -0.047 | inactive: -0.172 | inactive: 0.183 | inactive: -0.087 | inactive: 0.143 | inactive: 0.069 | inactive: 0.043 | inactive: -0.063 | inactive: 0.114 | inactive: -0.023
8 | BACH1 (UniProt O14867) | inactive: -0.027 | inactive: 0.04 | inactive: 0.013 | inactive: 0.019 | inactive: 0.024 | inactive: -0.043 | inactive: 0.008 | inactive: -0.009 | inactive: -0.03 | inactive: 0.018
9 | BABAM1 (UniProt Q9NWV8) | inactive: 0.044 | inactive: 0.056 | inactive: -0.096 | inactive: -0.011 | inactive: 0.041 | inactive: -0.051 | inactive: -0.046 | inactive: -0.008 | inactive: -0.057 | inactive: -0.015
10 | BLMH (UniProt Q13867) | inactive: -0.042 | inactive: 0 | inactive: 0.05 | inactive: -0.034 | inactive: -0.027 | inactive: -0.087 | inactive: 0 | inactive: 0.03 | inactive: 0.001 | inactive: 0.017
11 | BSDC1 (UniProt Q9NW68) | inactive: -0.031 | inactive: 0.064 | inactive: 0.013 | inactive: -0.008 | inactive: 0.008 | inactive: 0.013 | inactive: -0.026 | inactive: -0.044 | inactive: 0.009 | inactive: 0.015
12 | BLOC1S2 (UniProt Q6QNY1) | inactive: 0.054 | inactive: -0.01 | inactive: -0.032 | inactive: 0.023 | inactive: -0.103 | inactive: -0.055 | inactive: -0.283 | inactive: -0.007 | inactive: 0.069 | inactive: -0.014
13 | BECN1 (UniProt Q14457) | inactive: 0.141 | inactive: -0.126 | inactive: 0.043 | inactive: 0.093 | inactive: 0.138 | inactive: -0.066 | inactive: -0.004 | inactive: -0.019 | active: 0.283 | –
14 | B4GALT7 (UniProt Q9UBV7) | inactive: -0.047 | inactive: 0.041 | inactive: 0.169 | inactive: -0.104 | inactive: 0.397 | inactive: 0.112 | inactive: -0.04 | inactive: -0.027 | inactive: 0.039 | inactive: -0.089
15 | ATXN2L (UniProt Q8WWM7) | inactive: -0.039 | inactive: -0.084 | inactive: -0.121 | inactive: -0.003 | inactive: -0.037 | inactive: 0.009 | inactive: 0.025 | inactive: -0.053 | inactive: -0.035 | inactive: -0.018
16 | BMS1 (UniProt Q14692) | inactive: -0.06 | inactive: -0.033 | inactive: -0.169 | inactive: 0.358 | inactive: 0.153 | inactive: 0.048 | inactive: 0.229 | inactive: -0.141 | inactive: -0.219 | inactive: 0.032
17 | B4GALT3 (UniProt O60512) | inactive: 0.031 | inactive: -0.131 | inactive: 0.052 | inactive: -0.009 | inactive: 0.003 | inactive: 0.181 | inactive: 0.06 | inactive: 0.007 | inactive: 0.142 | inactive: 0.012
18 | B4GALT1 (UniProt P15291) | inactive: -0.007 | active: -0.479 | inactive: -0.031 | inactive: -0.124 | inactive: 0.161 | inactive: 0.049 | inactive: 0.071 | inactive: -0.066 | – | –
19 | BID isoform 2 (UniProt P55957) | inactive: 0.047 | inactive: 0.087 | active: 0.409 | inactive: -0.019 | inactive: -0.012 | inactive: -0.003 | inactive: -0.013 | inactive: 0.022 | – | –
20 | BCLAF1 (UniProt Q9NYF8) | inactive: -0.002 | inactive: -0.06 | inactive: 0.089 | active: -0.438 | inactive: -0.021 | inactive: -0.01 | inactive: 0.035 | inactive: 0.164 | – | –
21 | BAZ1B (UniProt Q9UIG0) | inactive: -0.153 | inactive: -0.207 | – | inactive: 0.107 | inactive: -0.119 | – | inactive: 0.004 | – | – | –
22 | BCAS1 (UniProt O75363) | inactive: -0.079 | – | inactive: -0.087 | inactive: -0.136 | inactive: 0.042 | inactive: -0.032 | – | inactive: -0.034 | inactive: 0.03 | inactive: -0.06
23 | BCAP29 isoform 2 (UniProt Q9UHQ4) | inactive: -0.015 | inactive: -0.028 | inactive: 0.061 | inactive: -0.005 | inactive: 0.037 | inactive: -0.079 | inactive: -0.024 | active: -0.245 | – | –
24 | BDH2 (UniProt Q9BUT1) | inactive: 0.035 | inactive: 0.243 | – | inactive: -0.215 | inactive: 0.011 | inactive: 0.067 | inactive: -0.053 | inactive: 0.053 | – | –
25 | BCL7C isoform 2 (UniProt Q8WUZ0) | inactive: -0.079 | – | inactive: 0.189 | inactive: 0.103 | – | – | – | – | – | –
26 | BAD (UniProt Q92934) | inactive: 0.171 | inactive: 0.076 | inactive: 0.076 | inactive: -0.036 | inactive: 0.018 | inactive: -0.033 | inactive: 0.003 | inactive: 0.025 | – | –

Retrieved one by one from the list above (two):
Row | Target | log2 fold change [1] | log2 fold change [2] | log2 fold change [3] | log2 fold change [4] | log2 fold change [5] | log2 fold change [6] | log2 fold change [7] | log2 fold change [8] | log2 fold change [9] | log2 fold change [10]
7 | BORCS5 (UniProt Q969J3) | inactive: -0.047 | inactive: -0.172 | inactive: 0.183 | inactive: -0.087 | inactive: 0.143 | inactive: 0.069 | inactive: 0.043 | inactive: -0.063 | inactive: 0.114 | inactive: -0.023
18 | B4GALT1 (UniProt P15291) | inactive: -0.007 | active: -0.479 | inactive: -0.031 | inactive: -0.124 | inactive: 0.161 | inactive: 0.049 | inactive: 0.071 | inactive: -0.066 | – | –

Source: the supplement of paper PMC10849652
